These results are taken from publication PMC8406179.

These are yes or no findings as the source states them, for the method shown. Binding seen in cells or lysates may run through a third protein. A yes stands for co-enrichment or nearness to the bait. Other partners may have been found.

Assay [1] deals with C-terminally FLAG/HA epitope-tagged MmuPV1 E7 (Mus musculus papillomavirus type 1). The assay can be described thus: affinity purification with mass spectrometry; FLAG/HA-tagged MmuPV1 E7 transiently expressed in HCT116; complexes isolated on HA antibody resin, eluted with HA peptide.
Assay [2] has as its target N-terminally FLAG/HA epitope-tagged MmuPV1 E7 (Mus musculus papillomavirus type 1). Described as above.

B1: retinoblastoma tumor suppressor protein RB1 (endogenous, HCT116) (protein, UniProt P06400 1-928)
chain: MPPKTPRKTAATAAAAAAEPPAPPPPPPPEEDPEQDSGPEDLPLVRLEFEETEEPDFTALCQKLKIPDHVRERAWLTWEKVSSVDGVLGGYIQKKKELWGICIFIAAVDLDEMSFTFTELQKNIEISVHKFFNLLKEIDTSTKVDNAMSRLLKKYDVLFALFSKLERTCELIYLTQPSSSISTEINSALVLKVSWITFLLAKGEVLQMEDDLVISFQLMLCVLDYFIKLSPPMLLKEPYKTAVIPINGSPRTPRRGQNRSARIAKQLENDTRIIEVLCKEHECNIDEVKNVYFKNFIPFMNSLGLVTSNGLPEVENLSKRYEEIYLKNKDLDARLFLDHDKTLQTDSIDSFETQRTPRKSNLDEEVNVIPPHTPVRTVMNTIQQLMMILNSASDQPSENLISYFNNCTVNPKESILKRVKDIGYIFKEKFAKAVGQGCVEIGSQRYKLGVRLYYRVMESMLKSEEERLSIQNFSKLLNDNIFHMSLLACALEVVMATYSRSTSQNLDSGTDLSFPWILNVLNLKAFDFYKVIESFIKAEGNLTREMIKHLERCEHRIMESLAWLSDSPLFDLIKQSKDREGPTDHLESACPLNLPLQNNHTAADMYLSPVRSPKKKGSTTRVNSTANAETQATSAFQTQKPLKSTSLSLFYKKVYRLAYLRLNTLCERLLSEHPELEHIIWTLFQHTLQNEYELMRDRHLDQIMMCSMYGICKVKNIDLKFKIIVTAYKDLPHAVQETFKRVLIKEEEYDSIIVFYNSVFMQRLKTNILQYASTRPPTLSPIPHIPRSPYKFPSSPLRIPGGNIYISPLKSPYKISEGLPTPTKMTPRSRILVSIGESFGTSEKFQKINQMVCNSDRVLKRSAEGSNPPKPLKKLRFDIEGSDEADGSKHLPGESKFQQKLAEMTSTRTRMQKQKMNDSMDTSNKEEK
B1: the binding entry in assay [1] and in assay [2] was “binds” in each case.
